# Literature values, collected in US9480691B1, “Topical liquid containing refined peanut oil for treating skin proliferation or inflammation disorders” (Hill Dermaceuticals, Inc., priority 2009, dated 2016).
# Some results were stated once for a whole list of compounds, not compound by compound. At least one compound was matched to its structure with a doubt left.
# Settings: topical steroid strength groups (very potent, potent, moderate)
smiles,measurement,value
CCCC(=O)O[C@]1(C(=O)CCl)[C@H](C)C[C@@H]2[C@@H]3CCC4=CC(=O)C=C[C@]4(C)[C@]3(F)C(=O)C[C@@]21C [clobetasone butyrate],potency relative to hydrocortisone,2-25 times as potent as hydrocortisone
